Source: paper PMC4650537
These are yes or no findings as the source states them, for the method shown. In cells and extracts the contact can be indirect. Some results given as binding are weak or reduced against the parent protein; the word gives no strength.

T1: pro-caspase-8 (human (endogenous in HCT116)), Q14790
T1 chain: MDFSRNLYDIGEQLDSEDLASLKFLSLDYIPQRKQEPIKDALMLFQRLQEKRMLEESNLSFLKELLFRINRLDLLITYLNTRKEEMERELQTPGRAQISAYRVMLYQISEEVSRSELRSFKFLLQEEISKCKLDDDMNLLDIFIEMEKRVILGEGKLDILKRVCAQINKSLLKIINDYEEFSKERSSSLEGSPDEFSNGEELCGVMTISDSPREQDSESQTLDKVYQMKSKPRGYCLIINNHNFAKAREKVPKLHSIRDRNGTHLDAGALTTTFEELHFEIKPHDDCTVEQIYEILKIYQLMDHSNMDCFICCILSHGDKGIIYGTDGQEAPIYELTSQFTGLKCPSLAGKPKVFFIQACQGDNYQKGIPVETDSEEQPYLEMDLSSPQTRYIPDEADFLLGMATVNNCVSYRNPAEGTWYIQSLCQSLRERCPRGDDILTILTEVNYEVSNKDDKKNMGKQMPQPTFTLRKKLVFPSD

T2: caspase-3 (human (endogenous in HCT116)), P42574
T2 chain: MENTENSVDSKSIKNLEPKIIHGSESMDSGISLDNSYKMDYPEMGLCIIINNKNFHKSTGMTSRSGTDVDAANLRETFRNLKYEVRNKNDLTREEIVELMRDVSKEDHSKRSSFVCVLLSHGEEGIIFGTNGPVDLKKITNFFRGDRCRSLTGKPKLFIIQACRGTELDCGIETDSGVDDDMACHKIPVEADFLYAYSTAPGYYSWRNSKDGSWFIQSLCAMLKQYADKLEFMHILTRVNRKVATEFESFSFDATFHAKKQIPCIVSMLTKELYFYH

B1: caspase-3, P42574 1-277 (protein)
chain: T2 chain
B2: pro-caspase-8, Q14790 1-479 (protein)
chain: T1 chain

How the values were obtained:
[1] = biological target: T1, pro-caspase-8 (human (endogenous in …)); test: co-IP; IP with caspase-8 antibody (IP-Cas-8) from lysates of HCT116 WT or C3KO cells treated with DMSO or 5-FU (50 μg/ml) for 24 h; also with z-VAD (20 μM) and with or without glutathione (GSH, 10 μM); blots quantified (Supplementary Tables S2, S3); details: remark: other sources report otherwise
[2] = biological target: T2, caspase-3 (human (endogenous in …)); test: co-IP; IP with caspase-3 antibody (IP-Cas-3) from lysates of HCT116 WT or C3KO cells treated with DMSO or 5-FU (50 μg/ml) for 24 h, without z-VAD; details: remark: other sources report otherwise

Binder | binding [1] | binding [2]
B1 | binds | 
B2 |  | binds
